Experiment [1] addresses T1, pEGFP-DGKδ expressed in NIH3T3 cells (human) (UniProt Q16760).
T1 sequence: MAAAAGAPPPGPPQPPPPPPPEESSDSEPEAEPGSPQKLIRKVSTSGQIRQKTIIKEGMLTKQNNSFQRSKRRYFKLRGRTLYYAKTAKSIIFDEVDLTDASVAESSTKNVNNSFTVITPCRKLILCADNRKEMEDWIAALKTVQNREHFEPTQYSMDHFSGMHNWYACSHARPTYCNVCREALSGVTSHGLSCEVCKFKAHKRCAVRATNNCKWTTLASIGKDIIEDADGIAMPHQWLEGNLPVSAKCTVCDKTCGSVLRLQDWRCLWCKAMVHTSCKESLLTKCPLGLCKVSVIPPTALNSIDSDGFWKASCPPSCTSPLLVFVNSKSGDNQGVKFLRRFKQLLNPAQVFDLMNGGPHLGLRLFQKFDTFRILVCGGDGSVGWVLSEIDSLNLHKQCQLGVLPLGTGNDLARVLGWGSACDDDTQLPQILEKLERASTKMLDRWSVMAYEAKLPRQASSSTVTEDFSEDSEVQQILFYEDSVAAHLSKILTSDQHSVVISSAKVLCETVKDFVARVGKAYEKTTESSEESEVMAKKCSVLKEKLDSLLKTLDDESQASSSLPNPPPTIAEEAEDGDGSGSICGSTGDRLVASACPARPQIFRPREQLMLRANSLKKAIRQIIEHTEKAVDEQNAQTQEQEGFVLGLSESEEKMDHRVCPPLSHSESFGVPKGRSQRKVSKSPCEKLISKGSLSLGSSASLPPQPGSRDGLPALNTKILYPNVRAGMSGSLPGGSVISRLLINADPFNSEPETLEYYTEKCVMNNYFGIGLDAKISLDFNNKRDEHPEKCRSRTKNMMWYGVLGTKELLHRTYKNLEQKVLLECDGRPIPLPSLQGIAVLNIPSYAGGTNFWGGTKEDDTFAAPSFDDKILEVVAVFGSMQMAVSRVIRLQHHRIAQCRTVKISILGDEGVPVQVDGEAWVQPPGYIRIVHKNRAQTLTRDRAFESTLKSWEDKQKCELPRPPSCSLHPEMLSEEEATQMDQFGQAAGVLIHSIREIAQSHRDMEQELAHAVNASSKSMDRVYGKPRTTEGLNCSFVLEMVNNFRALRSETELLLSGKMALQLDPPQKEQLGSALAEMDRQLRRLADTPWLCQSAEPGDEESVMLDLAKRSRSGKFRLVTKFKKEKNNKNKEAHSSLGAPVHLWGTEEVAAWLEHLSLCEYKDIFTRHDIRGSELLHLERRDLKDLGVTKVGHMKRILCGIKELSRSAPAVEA
Put plainly: proximity ligation; Duolink in situ PLA in NIH3T3 cells transfected with FLAG-IFT88 and pEGFP-DGKδ.

The target of experiment [2] is T2, FLAG-IFT88 (pCMV-IFT88-3XFLAG) (UniProt Q61371).
T2 sequence: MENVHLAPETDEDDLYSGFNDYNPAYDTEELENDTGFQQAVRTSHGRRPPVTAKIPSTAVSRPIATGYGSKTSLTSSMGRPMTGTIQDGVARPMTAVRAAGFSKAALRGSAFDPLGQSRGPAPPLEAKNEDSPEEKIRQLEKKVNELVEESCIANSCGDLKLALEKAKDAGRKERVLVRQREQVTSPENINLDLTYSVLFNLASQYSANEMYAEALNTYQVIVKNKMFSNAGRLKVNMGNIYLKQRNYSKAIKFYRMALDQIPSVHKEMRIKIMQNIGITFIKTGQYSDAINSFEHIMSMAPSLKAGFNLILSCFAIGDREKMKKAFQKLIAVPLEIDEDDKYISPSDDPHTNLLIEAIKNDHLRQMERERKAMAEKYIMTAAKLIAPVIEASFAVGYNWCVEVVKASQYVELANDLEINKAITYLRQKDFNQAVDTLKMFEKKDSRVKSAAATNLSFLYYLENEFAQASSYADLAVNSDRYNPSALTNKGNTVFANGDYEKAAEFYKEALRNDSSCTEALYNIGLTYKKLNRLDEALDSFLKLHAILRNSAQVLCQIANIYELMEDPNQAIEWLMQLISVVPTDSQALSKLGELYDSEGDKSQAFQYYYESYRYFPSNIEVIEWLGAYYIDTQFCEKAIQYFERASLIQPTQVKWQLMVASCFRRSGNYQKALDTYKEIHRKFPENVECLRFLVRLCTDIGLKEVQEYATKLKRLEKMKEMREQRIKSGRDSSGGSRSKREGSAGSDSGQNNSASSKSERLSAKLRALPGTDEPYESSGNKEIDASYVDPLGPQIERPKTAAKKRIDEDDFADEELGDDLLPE
Nature of the experiment: co-IP; 293T cells co-transfected; lysates in RIPA precipitated with anti-FLAG M2 affinity gel, Western blot with anti-GFP or anti-Sec31A. On the technique in general: Immunoblotting shows a protein as a band on a membrane.

No constants are given. Whether binding was seen depends on the method and setting. In cells and extracts the contact can be indirect. Some entries that bind do so weakly or less than the wild type. Tags and fused reporters may be left off the sequences shown.

B1: FLAG-IFT88 expressed in NIH3T3 cells (protein, UniProt Q61371 1-824)
chain: MENVHLAPETDEDDLYSGFNDYNPAYDTEELENDTGFQQAVRTSHGRRPPVTAKIPSTAVSRPIATGYGSKTSLTSSMGRPMTGTIQDGVARPMTAVRAAGFSKAALRGSAFDPLGQSRGPAPPLEAKNEDSPEEKIRQLEKKVNELVEESCIANSCGDLKLALEKAKDAGRKERVLVRQREQVTSPENINLDLTYSVLFNLASQYSANEMYAEALNTYQVIVKNKMFSNAGRLKVNMGNIYLKQRNYSKAIKFYRMALDQIPSVHKEMRIKIMQNIGITFIKTGQYSDAINSFEHIMSMAPSLKAGFNLILSCFAIGDREKMKKAFQKLIAVPLEIDEDDKYISPSDDPHTNLLIEAIKNDHLRQMERERKAMAEKYIMTAAKLIAPVIEASFAVGYNWCVEVVKASQYVELANDLEINKAITYLRQKDFNQAVDTLKMFEKKDSRVKSAAATNLSFLYYLENEFAQASSYADLAVNSDRYNPSALTNKGNTVFANGDYEKAAEFYKEALRNDSSCTEALYNIGLTYKKLNRLDEALDSFLKLHAILRNSAQVLCQIANIYELMEDPNQAIEWLMQLISVVPTDSQALSKLGELYDSEGDKSQAFQYYYESYRYFPSNIEVIEWLGAYYIDTQFCEKAIQYFERASLIQPTQVKWQLMVASCFRRSGNYQKALDTYKEIHRKFPENVECLRFLVRLCTDIGLKEVQEYATKLKRLEKMKEMREQRIKSGRDSSGGSRSKREGSAGSDSGQNNSASSKSERLSAKLRALPGTDEPYESSGNKEIDASYVDPLGPQIERPKTAAKKRIDEDDFADEELGDDLLPE
Take B1: the binding entry in experiment [1] is given as “binds”.

B2: CFP-Sec31A (protein, UniProt O94979 1-1220)
chain: MKLKEVDRTAMQAWSPAQNHPIYLATGTSAQQLDATFSTNASLEIFELDLSDPSLDMKSCATFSSSHRYHKLIWGPYKMDSKGDVSGVLIAGGENGNIILYDPSKIIAGDKEVVIAQNDKHTGPVRALDVNIFQTNLVASGANESEIYIWDLNNFATPMTPGAKTQPPEDISCIAWNRQVQHILASASPSGRATVWDLRKNEPIIKVSDHSNRMHCSGLAWHPDVATQMVLASEDDRLPVIQMWDLRFASSPLRVLENHARGILAIAWSMADPELLLSCGKDAKILCSNPNTGEVLYELPTNTQWCFDIQWCPRNPAVLSAASFDGRISVYSIMGGSTDGLRQKQVDKLSSSFGNLDPFGTGQPLPPLQIPQQTAQHSIVLPLKKPPKWIRRPVGASFSFGGKLVTFENVRMPSHQGAEQQQQQHHVFISQVVTEKEFLSRSDQLQQAVQSQGFINYCQKKIDASQTEFEKNVWSFLKVNFEDDSRGKYLELLGYRKEDLGKKIALALNKVDGANVALKDSDQVAQSDGEESPAAEEQLLGEHIKEEKEESEFLPSSGGTFNISVSGDIDGLITQALLTGNFESAVDLCLHDNRMADAIILAIAGGQELLARTQKKYFAKSQSKITRLITAVVMKNWKEIVESCDLKNWREALAAVLTYAKPDEFSALCDLLGTRLENEGDSLLQTQACLCYICAGNVEKLVACWTKAQDGSHPLSLQDLIEKVVILRKAVQLTQAMDTSTVGVLLAAKMSQYANLLAAQGSIAAALAFLPDNTNQPNIMQLRDRLCRAQGEPVAGHESPKIPYEKQQLPKGRPGPVAGHHQMPRVQTQQYYPHGENPPPPGFIMHGNVNPNAAGQLPTSPGHMHTQVPPYPQPQPYQPAQPYPFGTGGSAMYRPQQPVAPPTSNAYPNTPYISSASSYTGQSQLYAAQHQASSPTSSPATSFPPPPSSGASFQHGGPGAPPSSSAYALPPGTTGTLPAASELPASQRTGPQNGWNDPPALNRVPKKKKMPENFMPPVPITSPIMNPLGDPQSQMLQQQPSAPVPLSSQSSFPQPHLPGGQPFHGVQQPLGQTGMPPSFSKPNIEGAPGAPIGNTFQHVQSLPTKKITKKPIPDEHLILKTTFEDLIQRCLSSATDPQTKRKLDDASKRLEFLYDKLREQTLSPTITSGLHNIARSIETRNYSEGLTMHTHIVSTSNFSETSAFMPVLKVVLTQANKLGV
Turning to B2, the binding entry in experiment [2] is “binds”.
